Results deposited as PubChem BioAssay AID504793 (Drosophila RNAi Screening Center, 2011)

Screen: 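Whole-genome screen for parts of the DNA damage checkpoint at G2/M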 (primary screen)
Cell system: Drosophila S2R+ cells
Knock-down reagent: long dsRNA against Drosophila genes, about 0.25 µg dsRNA per well
Duration: 4 days of dsRNA, then 4 hours of drug before read-out
Conditions: doxorubicin 0.5 µM for 4 hours to cause double-strand breaks, in cells also given a low, harmless dose of dsRNA against nbs to sensitise the assay
Detection: 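Per-well count of mitotic cells stained for phospho-histone H3 after doxorubicin exposure, used as mitotic index; counts are raw and not normalised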
Reading the numbers: mitotic cells: higher = more cells in mitosis, weaker G2 arrest
Rule for the call: 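a call needs confirmation in secondary tests, with other dsRNAs and a check of mitotic timing without damage, not just a high primary count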
Meaning of the calls: active = confirmed in follow-up tests; inactive = not confirmed
The screen tested about 23,000 reagents; shown is an unselected part of those that have a named target and a result. Over the whole deposit, 62 (0.27%) got an active call. 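Calls come from follow-up tests whose scores are not deposited, so confirmed genes may have low counts here; counts are not normalised per plate.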 The raw values are shown without normalisation. The numbers tell different reagents against one gene apart. A plus sign joins genes that one reagent is predicted to hit.

gene	reagent	mitotic cells, replicate 1	call
Gr59a	1	13	inactive
Osi4	1	4	inactive
CG31957	1	5	inactive
Ubc7	1	15	inactive
Su(dx)	1	3	inactive
Su(dx)	2	2	inactive
CG42537	1	10	inactive
CG1688	1	9	inactive
CG12546 + CG14452	1	3	inactive
CG12546 + CG14452	2	8	inactive
GluRIIA	1		inactive
CG32246	1	10	inactive
CG32246	2	5	inactive
CG13312	1	5	inactive
CG13312	2	9	inactive
CG17304 (retired record)	1	6	inactive
CG17304 (retired record)	2	3	inactive
CG12343	1	13	inactive
TTLL3A	1	4	inactive
TTLL3A	2	7	inactive
CG14054	1	17	inactive
CG32450	1	4	inactive
CG7332	1	10	inactive
CG7332	2	2	inactive
CG15336	1	9	inactive
CG15336	2	4	inactive
CG15771	1	6	inactive
Lectin-galC1	1	5	inactive
CG8924	1	13	inactive
CG3803	1	7	inactive
CG7252	1	3	inactive
CG7252	2	4	inactive
senju	1	4	inactive
Grip128	1	18	inactive
nemy	1	6	inactive
nemy	2	3	inactive
nemy	3	7	inactive
CG30050	1	8	inactive
Usp47	1	5	inactive
CG31709	1	16	inactive
CG31709	2	2	inactive
CG6753	1	6	inactive
CG6753	2	6	inactive
CG33218 (retired record)	1	9	inactive
Coprox	1	8	inactive
Coprox	2	6	inactive
CG6867	1	9	inactive
CG6867	2	9	inactive
robl	1	12	inactive
CR32745	1	6	inactive
CR32745	2	5	inactive
CG13679	1	10	inactive
CG13679	2	8	inactive
gammaTub37C	1	3	inactive
gammaTub37C	2	9	inactive
CG4049	1	2	inactive
CG4049	2	5	inactive
hid	1	4	inactive
hid	2	4	inactive
Dpm1	1	5	inactive
Agpat3	1	6	inactive
CG30324	1	5	inactive
CG30324	2	6	inactive
mth	1	5	inactive
mth	2	12	inactive
Snx17	1	9	inactive
Snx17	2	5	inactive
RpL5	1	4	inactive
RpL5	2	6	inactive
Nmd3	1	6	inactive
Nmd3	2	6	inactive
Pfdn1	1	4	inactive
Pfdn1	2	4	inactive
CG1637	1	4	inactive
CG1637	2	7	inactive
CG1637	3	6	inactive
CG1637	4	4	inactive

Part of the list above, set out differently.
CG15771
- mitotic cells, replicate 1: 6
- call: inactive

Lectin-galC1
- mitotic cells, replicate 1: 5
- call: inactive

CG8924
- mitotic cells, replicate 1: 13
- call: inactive

CG3803
- mitotic cells, replicate 1: 7
- call: inactive

CG7252 #1
- mitotic cells, replicate 1: 3
- call: inactive

CG7252 #2
- mitotic cells, replicate 1: 4
- call: inactive

senju
- mitotic cells, replicate 1: 4
- call: inactive

Grip128
- mitotic cells, replicate 1: 18
- call: inactive

nemy #1
- mitotic cells, replicate 1: 6
- call: inactive
